# Measurements from PubChem BioAssay AID743470 (Broad Institute, 2014).
# This list was built around the results that the source calls inconclusive (neither active nor inactive); the mix of calls is not that of the screen. Activity calls are given as the source filed them.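 How the source made its calls: active means fitted curve falls past -35% at a concentration up to twice the top valid dose; inconclusive means no clear call, values can overlap the other calls; inactive means signal rising instead of falling, plus the rest.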
# Test: HEK293 cell cytotoxicity, dose response, cytotoxicity control, luminescence, dry powder, set 15 (AID 743470)
# Details: HEK293T viability, CellTiter-Glo ATP luminescence, 72 h; at 26 µM (top of the series) unless noted
row,SMILES,"activity change, negative = cytotoxicity"
1,N#CC1=C(N)Oc2ccc3ccccc3c2C1c1cccc(F)c1 (centres undefined),inactive: -9.08%
2,C[C@@]1(C(=O)Nc2ccc(F)nc2)CCCN1c1nc(Nc2cc(C3CC3)[nH]n2)c2cccn2n1,inconclusive: -39.3%
3,COc1ccccc1C1C(C#N)=C(N)Oc2cc(N)ccc21 (centres undefined),inconclusive: -32.1%
4,COc1cccc2c1C(=O)c1c(O)c3c(c(O)c1C2=O)C[C@@](O)(C(=O)CO)C[C@@H]3O[C@H]1C[C@H](N)[C@H](O)[C@H](C)O1,inconclusive: -53.1%
5,N#CC1=C(N)Oc2cc(N)ccc2C1c1ccccc1Cl (centres undefined),inconclusive: -28.5%
6,COc1ccccc1-c1nnc2n1N=C(c1ccc(O)c(O)c1)CS2,inconclusive: -45.6%
7,Cn1cc(-c2ccncc2)c(-c2ccc(OCc3ccc4ccccc4n3)cc2)n1,inconclusive: -40.4%
8,O=C(Cc1ccc(-c2ccc(OCCN3CCOCC3)cc2)cn1)NCc1ccccc1,inconclusive: -33.8% [at 12 µM]
9,CCN(CCO)CCCOc1ccc2c(Nc3cc(CC(=O)Nc4cccc(F)c4)[nH]n3)ncnc2c1,inactive: 43.7% [at 1.6 µM]

# 2 consecutive records from above:
row,SMILES,"activity change, negative = cytotoxicity"
7,Cn1cc(-c2ccncc2)c(-c2ccc(OCc3ccc4ccccc4n3)cc2)n1,inconclusive: -40.4%
8,O=C(Cc1ccc(-c2ccc(OCCN3CCOCC3)cc2)cn1)NCc1ccccc1,inconclusive: -33.8% [at 12 µM]
